Data taken from patent publication US20100227316A1, “LUMINESCENSE MEASURING APPARATUS AND LUMINESCENSE MEASURING METHOD” (OLYMPUS CORPORATION, priority 2005, published 2010).
For at least one compound, name, drawing or mass did not settle the structure.

Tested on: luciferase gene connected to TetO2 region (TetR-repressed) in HeLa cells
Assay: Luciferase reporter luminescence imaging in single HeLa cells after tetracycline stimulus
Assay type: cell-based
[1] = HeLa cells co-expressing pcDNA6/TR and luciferase in pcDNA4/TO, 1 mM luciferin, measurement regions ROI-1 and ROI-2, FIG. 11B

CN(C)[C@@H]1C(O)=C(C(N)=O)C(=O)[C@@]2(O)C(O)=C3C(=O)c4c(O)cccc4[C@@](C)(O)[C@H]3C[C@@H]12 [tetracycline]
time after adding tetracycline at which luminescence was found [1]: 2 h | time at which luminescence intensity reached a plateau [1]: 6 to 7 h | induction of luciferase expression and luminescence within the cell (HeLa cells with the TetR vector and the TetO2-luciferase plasmid, drug stimulus): caused the expression of luciferase and a luminescence phenomenon within the cell
